# Experimental data taken from PubChem BioAssay AID1671190 (National Center for Advancing Translational Sciences (NCATS), 2021).
# By UniProt entry, the sequences of proteins in these tests, tags left out. Where a name states a change or a piece, a line headed by the entry shows the natural chain unless it says otherwise.
# UniProt P18054: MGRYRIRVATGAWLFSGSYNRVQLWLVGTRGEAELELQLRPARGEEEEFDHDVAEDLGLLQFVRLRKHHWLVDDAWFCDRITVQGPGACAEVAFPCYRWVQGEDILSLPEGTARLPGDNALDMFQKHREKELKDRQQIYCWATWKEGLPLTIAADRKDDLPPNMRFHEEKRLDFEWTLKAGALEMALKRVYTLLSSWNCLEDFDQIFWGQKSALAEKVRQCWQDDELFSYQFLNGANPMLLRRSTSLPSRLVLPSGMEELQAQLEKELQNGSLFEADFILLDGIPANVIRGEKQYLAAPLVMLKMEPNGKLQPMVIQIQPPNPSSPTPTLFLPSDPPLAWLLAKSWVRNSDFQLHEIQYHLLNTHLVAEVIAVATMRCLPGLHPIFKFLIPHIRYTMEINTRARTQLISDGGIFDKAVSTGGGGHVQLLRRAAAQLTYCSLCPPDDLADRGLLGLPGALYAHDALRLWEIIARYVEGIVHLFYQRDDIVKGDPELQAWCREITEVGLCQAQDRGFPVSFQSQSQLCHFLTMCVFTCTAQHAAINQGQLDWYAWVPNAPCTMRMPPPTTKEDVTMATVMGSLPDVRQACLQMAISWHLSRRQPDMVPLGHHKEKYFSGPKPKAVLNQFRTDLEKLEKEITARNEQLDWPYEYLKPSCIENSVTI
# Screen size: about 580,000 compounds; about 6,100 (1.1%) were called active. Not shown: some 15% with an inconclusive outcome. Calls follow the shape of the dose curve; as a rule, active = well fitted inhibition curve with a large enough effect; inconclusive = small, poorly fitted or top-dose-only effect, or another doubt; inactive = no such curve, though single readings can be large or run the other way. Only a part is listed here, and it is no random draw. The source gives no active or inactive call for entries shown without one.
# Target: Polyunsaturated fatty acid lipoxygenase ALOX12 (Homo sapiens) (UniProt P18054)
# Experiment: Primary qHTS assay for inhibitors of human arachidonate 12S-lipoxygenase (ALOX12): Round 2
# Conditions: purified 12hLO, xylenol orange hydroperoxide absorbance; activity change, negative = inhibition: at 0.00344 µM (top of the series)
# Method in brief: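 Purified human 12hLO at 150 nM in 25 mM Hepes, 0.01% Triton X-100, pH 7.0, preincubated 15 min at room temperature with compound. Reaction started with 40 uM arachidonic acid, 30 min at room temperature. Hydroperoxide measured by Fe-xylenol orange, 573/405 nm absorbance ratio.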
# % is scaled to controls: 0 for no effect and ±100 for the full control effect; potency is read from the fitted curve at half-maximal effect.
SMILES,"activity change, negative = inhibition [%]",Potency
COc1cc2c(cc1OC)-c1cc(=Nc3c(C)cc(C)cc3C)n(C)c(=O)n1CC2,-0.655,
CCOC(=O)OC(C)OC(=O)[C@@H]1N2C(=O)[C@@H](NC(=O)[C@H](N)c3ccccc3)[C@H]2SC1(C)C (stereo partly drawn),-1.79,
CC1(C)Cc2c(ccc3ccccc23)/C(=C/C#N)N1,,active: 39.8 µM
Cc1c(OCC(F)(F)F)ccnc1CS(=O)c1nc2ccccc2[nH]1 (stereo not drawn),-4.58,active: 12.2 µM
COc1ccc(/C=C2\SC(=S)N(CC(=O)OCC(=O)Nc3cc(Cl)cc(Cl)c3)C2=O)cc1,,active: 39.8 µM
O=C1NC(=O)[C@@]2(CCOc3ccc(F)cc32)N1,16.9,
O=C1c2ccccc2NC(c2ccc(-c3ccc(C(F)(F)F)cc3)o2)N1O (stereo not drawn),,active: 28.2 µM
COc1cccc(C2=Cc3ccc(F)cc3C(CC(C)=O)N2c2ccc(C#CC3(O)CCCCC3)cc2)c1 (stereo not drawn),,active: 15.8 µM
FC(F)(F)c1cccc(/C=N/Nc2ccc(Cl)cc2)c1,,active: 7.08 µM
Nc1nc(Cl)nc2c1ncn2[C@@H]1O[C@H](CO)[C@@H](O)[C@@H]1F,-24.7,
CN1CC[C@H](c2c(O)cc(O)c3c(=O)cc(-c4ccccc4Cl)oc23)[C@H](O)C1,24,
O=C(NCN1CCOCC1)c1cnccn1,-9.96,
O=C(O)Cn1c(=O)n(Cc2ccc(Br)cc2F)c(=O)c2ccc(Cl)cc21,-12.6,
COc1ccc2c(c1)CC/C(=C\c1ccc(Br)o1)C2=O,,active: 22.4 µM
Cc1ccc(NC(=O)c2cc(-c3ccc[nH]3)n[nH]2)cc1F,,active: 10 µM
O=C(O)Cc1csc(-c2ccc(Cl)cc2)n1,6.74,
CCn1c(CCCOc2ccc(Cl)cc2Cl)n[nH]c1=S,,active: 25.1 µM
Cc1ccc(NS(=O)(=O)c2cc([N+](=O)[O-])ccc2NNC(=S)Nc2cc(C)ccc2C)c(C)c1,,active: 25.1 µM
CCOc1cc2cc(C(=O)c3ccccc3O)cnc2cc1OC,,active: 8.91 µM
CCCCCN(CCCOC)C(=O)C(CCC(=O)O)NC(=O)c1ccc(Cl)c(Cl)c1 (stereo not drawn),-26.8,
Cc1ccc(NC2=C(Cl)C(=O)OC2OC(=O)c2ccc(C)cc2)cc1 (stereo not drawn),,active: 7.94 µM
NC(CO)(CO)CO,20.6,
CN(C)CCN(Cc1cccs1)c1ccccn1,-24.1,
COc1ccc2cc1Oc1cc3c(cc1OC)CC[N+](C)(C)[C@H]3Cc1ccc(cc1)Oc1c(OC)c(OC)cc3c1[C@@H](C2)[N+](C)(C)CC3,-55.3,
Clc1ccc(C(Cn2ccnc2)OCc2c(Cl)cccc2Cl)c(Cl)c1 (stereo not drawn),10.6,
CO/N=C(/C(=O)N[C@@H]1C(=O)N2C(C(=O)OCOC(=O)C(C)(C)C)=C(C)CS[C@H]12)c1csc(N)n1,-2.9,

# An excerpt of these results, bar-delimited:
SMILES | activity change, negative = inhibition [%] | Potency
Cc1c(OCC(F)(F)F)ccnc1CS(=O)c1nc2ccccc2[nH]1 (stereo not drawn) | -4.58 | active: 12.2 µM
COc1ccc(/C=C2\SC(=S)N(CC(=O)OCC(=O)Nc3cc(Cl)cc(Cl)c3)C2=O)cc1 |  | active: 39.8 µM
O=C1NC(=O)[C@@]2(CCOc3ccc(F)cc32)N1 | 16.9 | 
O=C1c2ccccc2NC(c2ccc(-c3ccc(C(F)(F)F)cc3)o2)N1O (stereo not drawn) |  | active: 28.2 µM
COc1cccc(C2=Cc3ccc(F)cc3C(CC(C)=O)N2c2ccc(C#CC3(O)CCCCC3)cc2)c1 (stereo not drawn) |  | active: 15.8 µM

# (more compounds)

SMILES,"activity change, negative = inhibition [%]",Potency
OCCCc1ccccc1,-32.6,
NCCS(=O)(=O)O,16.9,
CCCCS(=O)(=O)N[C@@H](Cc1ccc(OCCCCC2CCNCC2)cc1)C(=O)O,-8.69,
NNC(=S)Nc1ccc(Br)cc1,,active: 7.08 µM
Cc1ccc(S(=O)(=O)NC(=O)NN2CC3CCCC3C2)cc1 (stereo not drawn),31.5,
CCCCCC(C)N (stereo not drawn),49.2,
COc1ccc2cc(CCC(C)=O)ccc2c1,19,
NC(=O)NC1N=C([O][Al])NC1=O (stereo not drawn),1.32,
CCC(NC(=O)C1CC1)c1ccc(C)cc1 (stereo not drawn),,active: 5.01 µM
C#CCN(C)Cc1ccccc1,-21.1,
O=C(CCCN1CC=C(n2c(=O)[nH]c3ccccc32)CC1)c1ccc(F)cc1,-8.31,
C[C@@]12C(=O)OC(=O)[C@]1(C)C1CCC2O1,16.7,
Cc1ncc([N+](=O)[O-])n1CCO,-6.16,
CCN(CC)CCSC(=O)C(c1ccccc1)c1ccccc1,18.7,
CCN(Cc1ccncc1)C(=O)C(CO)c1ccccc1 (stereo not drawn),10,
COc1ccc(CCN2CCC(Nc3nc4ccccc4n3Cc3ccc(F)cc3)CC2)cc1,18.1,
C/C(=N/Nc1ccccc1)c1ccc([N+](=O)[O-])cc1,,active: 1.58 µM
COC(=O)[C@H]1[C@H](CO)[C@H]2Cn3c(ccc(Br)c3=O)[C@H]2N1C(=O)c1ccccn1,,active: 0.794 µM
COCc1c(C(C)C)nc(C(C)C)c(/C=C/[C@@H](O)C[C@@H](O)CC(=O)O)c1-c1ccc(F)cc1,10.1,
Cc1cnc(CNc2ccnc(-c3ccc(C(=O)N(C)C)cc3)n2)cn1,,active: 35.5 µM
Cc1ccc(CNC(=S)Nc2ccc3c(c2)c(=O)n(C)n3Cc2cccc(C(F)(F)F)c2)cc1,,active: 17.8 µM
CC(C)C[C@H](NC(=O)[C@H](CCc1ccccc1)NC(=O)CN1CCOCC1)C(=O)N[C@@H](Cc1ccccc1)C(=O)N[C@@H](CC(C)C)C(=O)[C@@]1(C)CO1,25.3,
Cc1ccc(-c2cc(C(=O)N3CCN(c4ccc(F)cc4)CC3)c3ccccc3n2)o1,,active: 14.1 µM
O=C(O)c1[nH]n(-c2ccc(S(=O)(=O)O)cc2)c(=O)c1N=Nc1ccc(S(=O)(=O)O)cc1,-21.5,
NCC1CCC(C(=O)Oc2ccc(CCC(=O)O)cc2)CC1 (stereo not drawn),35.3,
Oc1ccc(/C=N/N(Cc2ccccc2)c2ccccc2)c(O)c1O,,active: 39.8 µM
